# These are yes or no findings as the source states them, for the method shown. Binding calls can cover weak binding; strength is not graded here. Tags and fused reporters may be left off the sequences shown.
# Target: T1, GST-fusion SENP1 protein (UniProt Q9P0U3)
# T1 sequence: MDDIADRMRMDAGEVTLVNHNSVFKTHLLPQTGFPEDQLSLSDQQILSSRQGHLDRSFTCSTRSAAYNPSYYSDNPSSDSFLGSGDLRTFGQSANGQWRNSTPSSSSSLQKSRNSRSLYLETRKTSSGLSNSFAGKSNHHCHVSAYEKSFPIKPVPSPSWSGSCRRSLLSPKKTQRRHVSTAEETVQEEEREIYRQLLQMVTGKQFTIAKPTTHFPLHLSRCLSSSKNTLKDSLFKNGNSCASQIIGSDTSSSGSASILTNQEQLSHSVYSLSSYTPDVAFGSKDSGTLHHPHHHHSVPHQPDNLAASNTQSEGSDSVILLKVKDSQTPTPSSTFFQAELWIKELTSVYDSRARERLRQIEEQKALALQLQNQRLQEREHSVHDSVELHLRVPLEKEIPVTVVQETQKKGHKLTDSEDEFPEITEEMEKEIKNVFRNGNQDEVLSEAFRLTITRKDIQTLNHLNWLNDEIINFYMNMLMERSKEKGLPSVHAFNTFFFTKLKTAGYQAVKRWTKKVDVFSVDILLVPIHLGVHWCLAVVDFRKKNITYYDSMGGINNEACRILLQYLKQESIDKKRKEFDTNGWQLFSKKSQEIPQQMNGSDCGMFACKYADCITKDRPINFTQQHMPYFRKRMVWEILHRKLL
# Test: pull-down; GST-pulldown in vitro with purified MEF2C-FLAG and GST-tagged SENP1; GST as control; both purified
substance,measurement,value
MEF2C-FLAG fusion protein,binding,binds

# Reference: paper PMC12059206
